Measurements reported in patent US20230265162A1.
No constants are given. Whether binding was seen depends on the method and setting. Some results given as binding are weak or reduced against the parent protein; the word gives no strength.

Molecular target: T1, growth differentiation factor 11 (GDF11) (UniProt O95390)
T1 sequence (looked up): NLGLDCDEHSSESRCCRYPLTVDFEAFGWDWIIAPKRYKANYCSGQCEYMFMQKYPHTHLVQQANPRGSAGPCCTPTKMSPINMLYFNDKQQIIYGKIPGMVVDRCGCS
Assay: SPR, Biacore 3000; receptor captured by anti-mouse antibody on CM4/CM5 chip, ligand in flow

binding: binds
B1: ActRIIA/b+ variant (SEQ ID NO: 149) (receptor, not shown: a dimerising Fc or GST)
chain: GAILGRSETQECLFYNANWELERTNQTGVERCEGEKDKRLHCYATWRNISGSIEIVAKGCWLDDFNCYDRTDCVETEENPQVYFCCCEGNMCNEKFSYFPEMEVTQPTS
